This data set relates to hESC. Put plainly: Capture of Wnt and SHh from embryonic stem cell cultures by cyclodextrin solution. To be noted: 10 mM cyclodextrin. In kind it is cell-based, human.

On to `OC[C@H]1O[C@@H]2O[C@H]3[C@H](O)[C@@H](O)[C@@H](O[C@H]4[C@H](O)[C@@H](O)[C@@H](O[C@H]5[C@H](O)[C@@H](O)[C@@H](O[C@H]6[C@H](O)[C@@H](O)[C@@H](O[C@H]7[C@H](O)[C@@H](O)[C@@H](O[C@H]8[C@H](O)[C@@H](O)[C@@H](O[C@H]1[C@H](O)[C@H]2O)O[C@@H]8CO)O[C@@H]7CO)O[C@@H]6CO)O[C@@H]5CO)O[C@@H]4CO)O[C@@H]3CO` [β-cyclodextrin], for which the “Capture effect compared to that observed with MBCD” value is on record as “reduced but proportional effect”.

As for `OC[C@H]1O[C@@H]2O[C@H]3[C@H](O)[C@@H](O)[C@@H](O[C@H]4[C@H](O)[C@@H](O)[C@@H](O[C@H]5[C@H](O)[C@@H](O)[C@@H](O[C@H]6[C@H](O)[C@@H](O)[C@@H](O[C@H]7[C@H](O)[C@@H](O)[C@@H](O[C@H]1[C@H](O)[C@H]2O)O[C@@H]7CO)O[C@@H]6CO)O[C@@H]5CO)O[C@@H]4CO)O[C@@H]3CO` [α-cyclodextrin], the “Capture effect compared to that observed with MBCD” value was “reduced but proportional effect”.

(Values after patent publication US20260199218A1, “USE OF CELL MEMBRANE-BOUND SIGNALING FACTORS” (AIVITA Biomedical, Inc., priority 2017, published 2026).)
